# The supplement of paper PMC8728848
# This is one part of the list.
# B1: CREG (Mus musculus), O88668 (protein)
# chain: MAARAPELARSLLAALLAPALVALLVSPASGRGGRDHGDWDVDRRLPPLPPREDGPRVARFVTHVSDWGSLATISTIKEVRGWPFADIISISDGPPGEGTGEPYMYLSPLQQAVSDLQENPEATLTMSLAQTVYCRNHGFDPQSPLCVHIMMSGTVTKVNKTEEDYARDSLFVRHPEMKHWPSSHNWFFAKLKISRIWVLDYFGGPKVVTPEEYFNVTLQ
# Experiments:
# Experiment in all cases: glycan array binding signal (z-score within array); higher = stronger binding
# Settings in all cases: glycan notation: IUPAC condensed, linker removed
# [1] = target: Fuc(a1-2)Gal
# Summary of the method: (§1)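 From the Consortium for Functional Glycomics database, 3228 arrays were curated, keeping only those whose protein sequence was available. Binding is given as a within-array Z-score averaged across arrays sharing a protein sequence and across linkers. Negative Z-scores can be read as non-binding.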
# [2] = target: Fuc(a1-2)Gal(b1-3)GalNAc
# Summary of the method: as §1
# [3] = target: Fuc(a1-2)Gal(b1-3)GalNAc(a1-3)[Fuc(a1-2)]Gal(b1-4)Glc
# Summary of the method: as §1
# [4] = target: Fuc(a1-2)Gal(b1-3)GalNAc(a1-3)[Fuc(a1-2)]Gal(b1-4)GlcNAc
# Summary of the method: as §1
# [5] = target: Fuc(a1-2)Gal(b1-3)GalNAc(b1-3)Gal
# Summary of the method: as §1
# [6] = target: Fuc(a1-2)Gal(b1-3)GalNAc(b1-3)Gal(a1-4)Gal(b1-4)Glc
# Summary of the method: as §1
# [7] = target: Fuc(a1-2)Gal(b1-3)GalNAc(b1-4)[Neu5Ac(a2-3)]Gal(b1-4)Glc
# Summary of the method: as §1
# [8] = target: Fuc(a1-2)Gal(b1-3)GlcNAc
# Summary of the method: as §1
# [9] = target: Fuc(a1-2)Gal(b1-3)GlcNAc(b1-2)Man(a1-3)[Fuc(a1-2)Gal(b1-3)GlcNAc(b1-2)Man(a1-6)]Man(b1-4)GlcNAc(b1-4)GlcNAc
# Summary of the method: as §1
# [10] = target: Fuc(a1-2)Gal(b1-3)GlcNAc(b1-3)Gal(b1-4)Glc
# Summary of the method: as §1
# [11] = target: Fuc(a1-2)Gal(b1-3)GlcNAc(b1-3)[Fuc(a1-3)[Gal(b1-4)]GlcNAc(b1-6)]Gal(b1-4)Glc
# Summary of the method: as §1
# [12] = target: Fuc(a1-2)Gal(b1-3)[Fuc(a1-4)]GlcNAc
# Summary of the method: as §1
# [13] = target: Fuc(a1-2)Gal(b1-3)[Fuc(a1-4)]GlcNAc(b1-2)Man(a1-3)[Fuc(a1-2)Gal(b1-3)[Fuc(a1-4)]GlcNAc(b1-2)Man(a1-6)]Man(b1-4)GlcNAc(b1-4)GlcNAc
# Summary of the method: as §1
# [14] = target: Fuc(a1-2)Gal(b1-3)[Fuc(a1-4)]GlcNAc(b1-3)[Fuc(a1-3)[Gal(b1-4)]GlcNAc(b1-6)]Gal(b1-4)Glc
# Summary of the method: as §1
# [15] = target: Fuc(a1-2)Gal(b1-3)[Fuc(a1-4)]GlcNAc(b1-3)[Gal(b1-4)GlcNAc(b1-6)]Gal(b1-4)Glc
# Summary of the method: as §1
# [16] = target: Fuc(a1-2)Gal(b1-4)Glc
# Summary of the method: as §1
# [17] = target: Fuc(a1-2)Gal(b1-4)Glc6S
# Summary of the method: as §1
# [18] = target: Fuc(a1-2)Gal(b1-4)GlcNAc
# Summary of the method: as §1
# [19] = target: Fuc(a1-2)Gal(b1-4)GlcNAc(b1-2)Man(a1-3)[Fuc(a1-2)Gal(b1-4)GlcNAc(b1-2)Man(a1-6)]Man(b1-4)GlcNAc(b1-4)GlcNAc
# Summary of the method: as §1
# [20] = target: Fuc(a1-2)Gal(b1-4)GlcNAc(b1-3)Gal(b1-4)GlcNAc
# Summary of the method: as §1
# [21] = target: Fuc(a1-2)Gal(b1-4)GlcNAc(b1-3)Gal(b1-4)GlcNAc(b1-3)Gal(b1-4)GlcNAc
# Summary of the method: as §1
# [22] = target: Fuc(a1-2)Gal(b1-4)GlcNAc(b1-3)GalNAc
# Summary of the method: as §1
# [23] = target: Fuc(a1-2)Gal(b1-4)GlcNAc6S
# Summary of the method: as §1
# [24] = target: Fuc(a1-2)Gal(b1-4)[Fuc(a1-3)]GlcNAc
# Summary of the method: as §1
# [25] = target: Fuc(a1-2)Gal(b1-4)[Fuc(a1-3)]GlcNAc(b1-2)Man(a1-3)[Fuc(a1-2)Gal(b1-4)[Fuc(a1-3)]GlcNAc(b1-2)Man(a1-6)]Man(b1-4)GlcNAc(b1-4)GlcNAc
# Summary of the method: as §1
# [26] = target: Fuc(a1-2)Gal(b1-4)[Fuc(a1-3)]GlcNAc(b1-3)Gal(b1-4)[Fuc(a1-3)]GlcNAc
# Summary of the method: as §1
# [27] = target: Fuc(a1-2)Gal(b1-4)[Fuc(a1-3)]GlcNAc(b1-3)Gal(b1-4)[Fuc(a1-3)]GlcNAc(b1-3)Gal(b1-4)[Fuc(a1-3)]GlcNAc
# Summary of the method: as §1
# [28] = target: Fuc(a1-2)Gal6S(b1-4)Glc
# Summary of the method: as §1
# [29] = target: Fuc(a1-2)Gal6S(b1-4)Glc6S
# Summary of the method: as §1
# [30] = target: Fuc(a1-2)Gal6S(b1-4)GlcNAc
# Summary of the method: as §1
# [31] = target: Fuc(a1-2)[Gal(a1-3)]Gal
# Summary of the method: as §1
# [32] = target: Fuc(a1-2)[Gal(a1-3)]Gal(b1-3)GlcNAc
# Summary of the method: as §1
# [33] = target: Fuc(a1-2)[Gal(a1-3)]Gal(b1-3)GlcNAc(b1-2)Man(a1-3)[Fuc(a1-2)[Gal(a1-3)]Gal(b1-3)GlcNAc(b1-2)Man(a1-6)]Man(b1-4)GlcNAc(b1-4)GlcNAc
# Summary of the method: as §1
# [34] = target: Fuc(a1-2)[Gal(a1-3)]Gal(b1-4)Glc
# Summary of the method: as §1
# [35] = target: Fuc(a1-2)[Gal(a1-3)]Gal(b1-4)GlcNAc
# Summary of the method: as §1
# [36] = target: Fuc(a1-2)[Gal(a1-3)]Gal(b1-4)GlcNAc(b1-2)Man(a1-3)[Fuc(a1-2)[Gal(a1-3)]Gal(b1-4)GlcNAc(b1-2)Man(a1-6)]Man(b1-4)GlcNAc(b1-4)GlcNAc
# Summary of the method: as §1
# [37] = target: Fuc(a1-2)[Gal(a1-3)]Gal(b1-4)[Fuc(a1-3)]GlcNAc
# Summary of the method: as §1
# [38] = target: Fuc(a1-2)[Gal(a1-4)]Gal(b1-4)GlcNAc
# Summary of the method: as §1
# [39] = target: Fuc(a1-2)[GalNAc(a1-3)]Gal
# Summary of the method: as §1
# [40] = target: Fuc(a1-2)[GalNAc(a1-3)]Gal(b1-3)GalNAc(a1-3)[Fuc(a1-2)]Gal(b1-4)GlcNAc
# Summary of the method: as §1
# [41] = target: Fuc(a1-2)[GalNAc(a1-3)]Gal(b1-3)GlcNAc
# Summary of the method: as §1
# [42] = target: Fuc(a1-2)[GalNAc(a1-3)]Gal(b1-3)GlcNAc(b1-2)Man(a1-3)[Fuc(a1-2)[GalNAc(a1-3)]Gal(b1-3)GlcNAc(b1-2)Man(a1-6)]Man(b1-4)GlcNAc(b1-4)GlcNAc
# Summary of the method: as §1
# [43] = target: Fuc(a1-2)[GalNAc(a1-3)]Gal(b1-4)Glc
# Summary of the method: as §1
# [44] = target: Fuc(a1-2)[GalNAc(a1-3)]Gal(b1-4)GlcNAc
# Summary of the method: as §1
# [45] = target: Fuc(a1-2)[GalNAc(a1-3)]Gal(b1-4)GlcNAc(b1-2)Man(a1-3)[Fuc(a1-2)[GalNAc(a1-3)]Gal(b1-4)GlcNAc(b1-2)Man(a1-6)]Man(b1-4)GlcNAc(b1-4)GlcNAc
# Summary of the method: as §1
binder,measurement,setting,value
B1,glycan array binding signal (z-score),[1],-0.052
same,glycan array binding signal (z-score),[2],-0.385
same,glycan array binding signal (z-score),[3],-0.299
same,glycan array binding signal (z-score),[4],-0.28
same,glycan array binding signal (z-score),[5],2.03
same,glycan array binding signal (z-score),[6],1.18
same,glycan array binding signal (z-score),[7],-0.52
same,glycan array binding signal (z-score),[8],-0.574
same,glycan array binding signal (z-score),[9],1.52
same,glycan array binding signal (z-score),[10],0.862
same,glycan array binding signal (z-score),[11],-0.51
same,glycan array binding signal (z-score),[12],0.754
same,glycan array binding signal (z-score),[13],-0.82
same,glycan array binding signal (z-score),[14],-0.236
same,glycan array binding signal (z-score),[15],-1.42
same,glycan array binding signal (z-score),[16],0.125
same,glycan array binding signal (z-score),[17],-0.17
same,glycan array binding signal (z-score),[18],0.041
same,glycan array binding signal (z-score),[19],0.195
same,glycan array binding signal (z-score),[20],-0.464
same,glycan array binding signal (z-score),[21],-0.799
same,glycan array binding signal (z-score),[22],0.824
same,glycan array binding signal (z-score),[23],-1
same,glycan array binding signal (z-score),[24],-0.328
same,glycan array binding signal (z-score),[25],0.36
same,glycan array binding signal (z-score),[26],0.152
same,glycan array binding signal (z-score),[27],0.151
same,glycan array binding signal (z-score),[28],-0.047
same,glycan array binding signal (z-score),[29],-0.03
same,glycan array binding signal (z-score),[30],-0.138
same,glycan array binding signal (z-score),[31],-0.992
same,glycan array binding signal (z-score),[32],0.989
same,glycan array binding signal (z-score),[33],-0.38
same,glycan array binding signal (z-score),[34],-1.24
same,glycan array binding signal (z-score),[35],1.36
same,glycan array binding signal (z-score),[36],2.76
same,glycan array binding signal (z-score),[37],0.58
same,glycan array binding signal (z-score),[38],0.699
same,glycan array binding signal (z-score),[39],-0.068
same,glycan array binding signal (z-score),[40],-0.99
same,glycan array binding signal (z-score),[41],-0.28
same,glycan array binding signal (z-score),[42],-0.148
same,glycan array binding signal (z-score),[43],0.375
same,glycan array binding signal (z-score),[44],-0.002
same,glycan array binding signal (z-score),[45],-0.239

# 3 entries from above in a different format.
binder | measurement | setting | value
B1 | glycan array binding signal (z-score) | [1] | -0.052
same | glycan array binding signal (z-score) | [10] | 0.862
same | glycan array binding signal (z-score) | [13] | -0.82
